Measured values from patent publication US20130184222A1, “THERAPEUTICALLY ACTIVE COMPOSITIONS AND THEIR METHODS OF USE” (AGIOS PHARMACEUTICALS, INC, priority 2010, published 2013).

By UniProt entry, the sequences of proteins in these tests, tags left out.
UniProt O75874, whole entry R132H: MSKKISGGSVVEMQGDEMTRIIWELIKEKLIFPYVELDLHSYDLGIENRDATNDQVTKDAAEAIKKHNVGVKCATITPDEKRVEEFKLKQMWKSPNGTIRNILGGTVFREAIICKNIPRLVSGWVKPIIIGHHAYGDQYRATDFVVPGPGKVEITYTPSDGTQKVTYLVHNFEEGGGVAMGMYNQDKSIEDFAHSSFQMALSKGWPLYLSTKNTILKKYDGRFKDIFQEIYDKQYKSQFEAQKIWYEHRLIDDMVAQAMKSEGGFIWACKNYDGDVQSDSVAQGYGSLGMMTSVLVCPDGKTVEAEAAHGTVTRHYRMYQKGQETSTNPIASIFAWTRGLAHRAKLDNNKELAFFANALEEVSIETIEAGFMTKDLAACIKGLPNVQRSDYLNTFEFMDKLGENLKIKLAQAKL

Tests used:
IDH1 R132H = IDH1 R132H (Homo sapiens, UniProt O75874, R132H); test: In vitro assay for IDH1 R132H inhibitors (NADPH/aKG, resazurin detection); details: read-out: IC50, IDH1 R132H Inhibition; Table 4B; 0.2 μg/ml IDH1 R132H, 50 minutes at room temperature
U87MG cells = test: Cellular assay: inhibition of 2-HG production in U87MG cells (LC-MS, 48 hours); details: read-out: U87MG IC50, Inhibition of 2-HG Production, 2-HG in media by LC-MS
HT1080 cells = test: Cellular assay: inhibition of 2-HG production in HT1080 cells (LC-MS, 48 hours); details: read-out: HT1080 IC50, Inhibition of 2-HG Production, 2-HG in media by LC-MS

IC50 (IDH1 R132H): 100 to 1000 nM
IC50 (U87MG cells): < 250 nM
IC50 (HT1080 cells): 1000 to 5000 nM
SMILES: Cc1ccccc1C(C(=O)NC1CCCCC1)N(C(=O)Cn1ccnc1C)c1cccc(-c2cncnc2)c1 (stereo not drawn)

The match of structure and compound is tentative.
